Assay results: article PMC9873567
No constants are given. Whether binding was seen depends on the method and setting. Tags and fused reporters may be left off the sequences shown.

Amino acid sequences for entries named in this document (tags omitted).
UniProt Q9LS26: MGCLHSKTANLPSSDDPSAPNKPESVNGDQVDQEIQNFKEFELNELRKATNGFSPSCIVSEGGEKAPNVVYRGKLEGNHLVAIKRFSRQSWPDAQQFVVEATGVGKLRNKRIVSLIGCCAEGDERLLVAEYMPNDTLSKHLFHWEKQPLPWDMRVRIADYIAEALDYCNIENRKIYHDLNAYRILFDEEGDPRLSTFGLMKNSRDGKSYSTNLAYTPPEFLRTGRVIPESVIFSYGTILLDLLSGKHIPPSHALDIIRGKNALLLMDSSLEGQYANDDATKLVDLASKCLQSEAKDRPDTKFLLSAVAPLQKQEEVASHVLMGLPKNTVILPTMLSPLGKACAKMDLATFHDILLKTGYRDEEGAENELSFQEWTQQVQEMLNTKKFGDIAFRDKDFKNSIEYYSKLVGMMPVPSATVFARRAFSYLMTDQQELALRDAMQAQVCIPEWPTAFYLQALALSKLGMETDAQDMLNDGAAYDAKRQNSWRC

Tests used:
[1] = biological target: T1, BD-PUB30 (full length PUB30 as bait) (Arabidopsis thaliana) (UniProt Q058P4); assay: two-hybrid; yeast strain AH109; bait on the DNA-binding domain (pGBKT7), prey on the activation domain (pGADT7); growth on SD (-Trp, -Leu, -His) with 1 mM 3-AT, tenfold serial dilutions
T1 sequence: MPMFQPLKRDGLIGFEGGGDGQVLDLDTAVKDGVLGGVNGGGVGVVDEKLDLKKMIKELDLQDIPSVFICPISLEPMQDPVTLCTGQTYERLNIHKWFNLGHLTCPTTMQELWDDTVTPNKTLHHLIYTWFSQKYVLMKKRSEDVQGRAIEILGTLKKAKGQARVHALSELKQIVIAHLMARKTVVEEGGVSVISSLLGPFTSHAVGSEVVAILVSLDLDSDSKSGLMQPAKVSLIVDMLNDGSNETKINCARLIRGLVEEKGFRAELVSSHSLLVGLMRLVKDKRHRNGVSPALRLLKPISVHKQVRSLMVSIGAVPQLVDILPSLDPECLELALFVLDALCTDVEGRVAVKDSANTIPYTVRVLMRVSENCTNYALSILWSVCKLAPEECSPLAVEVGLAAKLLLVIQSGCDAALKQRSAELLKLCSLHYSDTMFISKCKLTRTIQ

[2] = biological target: T2, BD-PUB31 (full length PUB31 as bait) (Arabidopsis thaliana) (UniProt Q9FHN9); assay: as above
T2 sequence: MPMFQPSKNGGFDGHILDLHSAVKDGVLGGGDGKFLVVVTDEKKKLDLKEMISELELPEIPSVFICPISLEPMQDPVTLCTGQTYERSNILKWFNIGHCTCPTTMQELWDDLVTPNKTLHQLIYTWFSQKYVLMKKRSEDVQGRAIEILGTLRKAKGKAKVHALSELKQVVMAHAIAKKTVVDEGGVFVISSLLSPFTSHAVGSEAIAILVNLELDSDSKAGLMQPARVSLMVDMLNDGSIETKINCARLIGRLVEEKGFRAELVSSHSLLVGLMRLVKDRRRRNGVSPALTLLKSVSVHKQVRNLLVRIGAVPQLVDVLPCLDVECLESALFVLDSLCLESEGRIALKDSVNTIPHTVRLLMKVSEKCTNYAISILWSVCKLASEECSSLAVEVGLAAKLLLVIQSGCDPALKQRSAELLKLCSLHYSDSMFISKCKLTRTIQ

binding [1]: no binding
binding [2]: no binding
Substance: BSK2 (yeast two-hybrid) (from UniProt Q9LS26 1-489)
